Test [1] addresses Estrogen Receptor α (ERα), in vitro translated and [35S]methionine-labeled (UniProt P03372). Put plainly: yeast two-hybrid screening.
The target is the same in test [2]. As to the kind of experiment: GST pull-down: GST-EDG1 on Sepharose with in vitro translated [35S]-labeled ERα in the presence of E2.

Protein sequences, listed by entry. Tags and fused reporters are not part of them. Lines headed by an entry give the natural chain unless they say otherwise; changes in a name come on top.
UniProt P03372: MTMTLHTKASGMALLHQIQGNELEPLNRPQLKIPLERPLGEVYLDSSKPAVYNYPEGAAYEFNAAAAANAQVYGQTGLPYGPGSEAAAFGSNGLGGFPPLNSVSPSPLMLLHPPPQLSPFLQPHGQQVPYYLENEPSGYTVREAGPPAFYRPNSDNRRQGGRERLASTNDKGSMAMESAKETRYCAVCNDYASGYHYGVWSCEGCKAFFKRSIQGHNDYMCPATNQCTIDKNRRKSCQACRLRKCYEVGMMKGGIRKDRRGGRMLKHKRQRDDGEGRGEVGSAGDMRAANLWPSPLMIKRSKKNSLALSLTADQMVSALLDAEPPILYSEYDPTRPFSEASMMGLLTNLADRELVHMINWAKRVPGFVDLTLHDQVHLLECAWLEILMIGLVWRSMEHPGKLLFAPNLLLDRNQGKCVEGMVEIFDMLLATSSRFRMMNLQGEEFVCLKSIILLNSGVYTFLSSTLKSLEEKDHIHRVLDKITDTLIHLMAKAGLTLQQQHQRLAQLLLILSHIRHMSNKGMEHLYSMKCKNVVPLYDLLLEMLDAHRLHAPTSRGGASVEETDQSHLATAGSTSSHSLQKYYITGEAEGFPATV
UniProt O94992: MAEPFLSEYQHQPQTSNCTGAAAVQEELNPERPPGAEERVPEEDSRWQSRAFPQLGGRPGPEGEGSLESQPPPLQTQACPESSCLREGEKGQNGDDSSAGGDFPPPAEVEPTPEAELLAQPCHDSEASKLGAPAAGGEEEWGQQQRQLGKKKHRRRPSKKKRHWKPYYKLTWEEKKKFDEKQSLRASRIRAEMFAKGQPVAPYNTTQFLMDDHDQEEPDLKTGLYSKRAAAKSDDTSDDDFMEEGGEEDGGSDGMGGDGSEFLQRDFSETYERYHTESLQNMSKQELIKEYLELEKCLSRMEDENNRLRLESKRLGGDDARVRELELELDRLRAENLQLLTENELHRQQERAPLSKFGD

These are yes or no findings as the source states them, for the method shown. For some assays here: In cells and extracts the contact can be indirect. Some binding calls cover weakened binding; strength is not graded here.

As to “EDG1 protein (Estrogen Down-Regulated Gene 1 protein) (from UniProt O94992 1-359)”, the binding entry in test [1] is recorded as “binds”.

As to “GST-EDG1 (full-length EDG1 in frame with glutathione-S-transferase, from pGEX2T-EDG1), bound to Sepharose (from UniProt O94992 1-359)”, the binding entry in test [2] was “binds”.

These data come from patent publication US6753418.
